Like-named read-outs stand apart in the source and are kept apart here.
How the values were obtained:
TiPARP mRNA [1] = settings: human
Protocol: (§1) Quantitative Real Time PCR (qRT-PCR)
(§2) Total RNA. was isolated using RNeasy Mini kit (Qiagen) according to the manufacturer's instructions. 0.2 μg sample of total RNA was employed for cDNA synthesis using the Superscript III First-Strand Synthesis kit (Invitrogen) following the manufacturer's instructions. For quantitative real-time PCR analysis, iTaq Universal SYBR Green Supermix (Bio-Rad) was used following the manufacturer's instructions. The reaction was performed with QuantStudio™ 7 Flex Real-Time PCR System (APPLIED BIOSYSTEMS™). In each run, melt curve analysis was performed to ensure the amplification of a single product. The relative expression of each gene, normalized to actin, was calculated using the 2^−ΔΔCt method. The following primers were used for qRT-PCR: VEGF: 5′-[…]-3′ (SEQ ID NO: 24) and 5′-[…]-3′ (SEQ ID NO: 25); GLUT1: 5′-[…] CTAAA-3′ (SEQ ID NO: 26) and 5′˜[…]-3′ (SEQ ID NO: 27); PDK1: 5′-[…]-3′ (SEQ ID NO: 28) and 5′-[…]-3′ (SEQ ID NO: 29); WSBJ: 5′-[…]-3′ (SEQ ID NO: 30) and 5′-[…]-3′ (SEQ ID NO: 31); LDHA: 5′-[…]-3′ (SEQ ID NO: 32) and 5′-[…] CAG-3′ (SEQ ID NO: 33); CXCR4: 5′-[…]-3′ (SEQ ID NO: 34) and 5′-[…]-3′ (SEQ ID NO: 35); TIPARP: 5′-[…]-3′ (SEQ ID NO: 36) and 5′-[…]-3′ (SEQ ID NO: 37), ACTIN: 5′-[…]-3′ (SEQ ID NO: 38) and 5′-[…]-3′ (SEQ ID NO: 39).

SKBR3 (ER neg.) = test: IC50 in SKBR3 (ER neg.) cell line; assay type: cell-based; settings: Homo sapiens, SK-BR-3
MCF-7 (ER pos.) = test: IC50 in MCF-7 (ER pos.) cell line; assay type: cell-based; settings: Homo sapiens, MCF7
TiPARP mRNA [2] = settings: human; remark: listed apart in the source
Protocol: as §1, §2

MDA-MB-231 (ER negative) = test: IC50 in MDA-MB-231 (ER negative) cell line; assay type: cell-based; settings: Homo sapiens
HCT116 = test: IC50 in HCT116 cell line; assay type: cell-based; settings: Homo sapiens, HCT-116
A549 = test: cells; settings: Homo sapiens, A549, read-out: IC50 value
MDA-MB-468 (ER negative) = test: IC50 in MDA-MB-468 (ER negative) cell line; assay type: cell-based; settings: Homo sapiens
TiPARP mRNA [3] = settings: human; remark: listed apart in the source
Protocol: as §1, §2

**Q.** With CC/C(=C(\c1ccccc1)c1ccc(OCCN(C)C)cc1)c1ccccc1 [tamoxifen] as the compound, how does the “TiPARP mRNA fold induction” value (TiPARP mRNA [1]) read?
**A.** 56.0 fold

**Q.** What about the IC50 (SKBR3 (ER neg.)) of the same compound?
**A.** 9.7 µM

**Q.** What about the IC50 (MCF-7 (ER pos.)) of the same compound?
**A.** 0.88 µM

**Q.** And the “TiPARP mRNA fold induction” value (TiPARP mRNA [2])?
**A.** 2.0 fold

**Q.** What about the IC50 (MDA-MB-231 (ER negative)) of the same compound?
**A.** 2.2 µM

**Q.** And the IC50 (HCT116)?
**A.** 8.6 µM

**Q.** And the IC50 (A549)?
**A.** 26.2 µM

**Q.** And the IC50 (MDA-MB-468 (ER negative))?
**A.** 1.5 µM

**Q.** And the “TiPARP mRNA fold induction” value (TiPARP mRNA [3])?
**A.** 14.5 fold
